Experimental data reported in PubChem BioAssay AID743255 (National Center for Advancing Translational Sciences (NCATS), 2014).
The campaign covered roughly 390,000 compounds. About 910 (0.23%) were called active. The shares of active, inactive and inconclusive entries below differ from those in the screen. Calls follow the shape of the dose curve; as a rule, active = well fitted inhibition curve with a large enough effect; inconclusive = small, poorly fitted or top-dose-only effect; inactive = no such curve, though single readings can be large or run the other way. Potencies beside an inconclusive call are fits to weak or partial responses and may not hold up.

By UniProt entry, the sequences of proteins in these tests, tags left out. Where a name states a change or a piece, a line headed by the entry shows the natural chain unless it says otherwise.
UniProt O94782: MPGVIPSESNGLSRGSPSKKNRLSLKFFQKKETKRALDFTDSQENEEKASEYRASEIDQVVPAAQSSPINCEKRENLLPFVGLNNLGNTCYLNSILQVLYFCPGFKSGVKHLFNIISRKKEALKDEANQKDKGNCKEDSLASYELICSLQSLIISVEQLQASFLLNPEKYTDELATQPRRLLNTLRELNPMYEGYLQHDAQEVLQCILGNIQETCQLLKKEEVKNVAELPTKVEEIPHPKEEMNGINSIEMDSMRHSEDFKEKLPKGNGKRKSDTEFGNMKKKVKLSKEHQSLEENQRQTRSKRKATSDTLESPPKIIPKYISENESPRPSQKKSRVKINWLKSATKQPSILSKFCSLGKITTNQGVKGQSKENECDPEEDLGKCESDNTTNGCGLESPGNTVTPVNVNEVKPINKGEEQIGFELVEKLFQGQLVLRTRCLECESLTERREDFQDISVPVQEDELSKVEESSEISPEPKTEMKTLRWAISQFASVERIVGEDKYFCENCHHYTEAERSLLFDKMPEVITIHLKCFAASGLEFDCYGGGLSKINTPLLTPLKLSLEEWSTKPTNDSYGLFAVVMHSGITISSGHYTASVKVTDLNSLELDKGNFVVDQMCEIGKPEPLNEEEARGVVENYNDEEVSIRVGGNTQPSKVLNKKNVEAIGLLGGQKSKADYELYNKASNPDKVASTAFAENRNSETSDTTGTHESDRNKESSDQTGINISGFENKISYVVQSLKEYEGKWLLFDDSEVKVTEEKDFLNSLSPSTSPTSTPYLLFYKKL

target: Ubiquitin carboxyl-terminal hydrolase 1 (Homo sapiens) (UniProt O94782); experiment: Inhibitors of USP1/UAF1: Primary Screen; settings: recombinant USP1/UAF1, Ub-Rhodamine cleavage fluorescence; series mostly up to 57.1 µM; also: nearly all actives have a fitted effect of over 60% in size
Method in brief: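 In this screen, compounds sit with the deubiquitinase complex (1nM) for 15 min at room temperature before Ub-Rho is added at 150nM final. Fluorescence rise is then followed for 6 reads every 60 seconds.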
Potency is read from the fitted curve at half-maximal effect.

Potency, inconclusive:
Cc1cc2c3c(c1)C(C)CC(C)(C)N3C(=O)C2=O (configuration not stated) 15.8 µM [inhibitor, partial curve, poor fit], COc1ccc(NC(=O)c2oc3ccccc3c2NC(=O)c2cccc(F)c2)c(OC)c1 10 µM [inhibitor, partial curve], COc1ccccc1C=NNC(=O)c1ccccc1OCCOc1ccccc1 50.1 µM [inhibitor, partial curve], Cc1ccc(CCNC(=O)c2cc3sccc3n2Cc2ccc(C)cc2)cc1 50.1 µM [inhibitor, partial curve, poor fit], Cc1c(N=N/C(C(=O)Nc2ccccc2)=C(/O)c2ccccc2)c(=O)n(-c2ccccc2)n1C 35.5 µM [inhibitor, single point], Nc1ccn([C@@H]2O[C@H](CO)[C@@H](O)C2O)c(=O)n1 (some centres not stated) 0.282 µM [inhibitor, full curve], CCOC(=O)c1cccc(NC(=O)c2oc3c(c2C)-c2[nH]ncc2CC3)c1 50.1 µM [inhibitor, partial curve, poor fit], CCCN(C(=O)c1cc2c(s1)-c1ccccc1OC2)c1ccccc1F 31.6 µM [inhibitor, partial curve], CCC(C(=O)Nc1ccc(C(=O)OC)cc1)n1c(=O)c(-c2ccccc2NC(C)=O)nc2ccccc21 (configuration not stated) 35.5 µM [inhibitor, partial curve, poor fit], CCCNC(=O)c1ccc(N2CCC3(CC2)CC(c2ccccc2)=NO3)c(NC(=O)Cc2ccc(F)cc2)c1 56.2 µM [inhibitor, partial curve, poor fit], Cc1cc(Nc2nc3ccccc3nc2Cl)n(-c2ccccc2C)n1 50.1 µM [inhibitor, partial curve, poor fit], Cc1cc(NC(=O)c2ccc(Br)o2)cc(-c2nc3ccccc3o2)c1O 50.1 µM [inhibitor, partial curve, poor fit], Cc1c2ccccc2nc2c(F)c(N(C)C)c(F)c(F)c12 39.8 µM [inhibitor, partial curve, poor fit], C[C@@H]1CCCCO[C@H](CN(C)Cc2ccc(C(F)(F)F)cc2)[C@H](C)CN([C@@H](C)CO)C(=O)c2cc(NC(=O)Cc3ccccc3)ccc2O1 0.282 µM [inhibitor, full curve], NS(=O)(=O)c1ccc(CCNC(=O)C2COc3ccccc3C2)cc1 (configuration not stated) 5.62 µM [inhibitor, full curve, poor fit], O=C(NCC(F)(F)F)c1nn(Cc2ccccc2)c(=O)c2ccccc12 10 µM [inhibitor, partial curve, poor fit], COc1cc(NC(=O)CCn2c(-c3ccccc3)cc(C(C)=O)c2C)cc(OC)c1 44.7 µM [inhibitor, partial curve, poor fit], COc1ccc(-n2nc(C(=O)N3CCC(C#N)CC3)c3c4ccccc4n(C)c3c2=O)cc1 35.5 µM [inhibitor, single point], Nc1cc(N2CCCCCC2)c2nonc2c1[N+](=O)[O-] 39.8 µM [inhibitor, partial curve, poor fit], Cc1cc(=O)n(Nc2ccccc2)c(O)c1C#N 56.2 µM [inhibitor, partial curve, poor fit], Cc1ccc(C(=O)N2CCC(C)CC2)cc1C 6.31 µM [inhibitor, single point], COc1ccccc1Nc1nc(-c2cccc(N3C(=O)c4ccccc4C3=O)c2)cs1 44.7 µM [inhibitor, partial curve], CCC(=O)N1CCc2cc(Br)cc(S(=O)(=O)CCC(=O)NCCc3ccc(OC)c(OC)c3)c21 5.01 µM [inhibitor, partial curve], Cc1ccc(N2C(=O)C(Cc3ccccc3)NC2=S)cc1 (configuration not stated) 28.2 µM [inhibitor, single point], COc1ccc(N(C(=O)CNC(=O)c2cccs2)C(C(=O)NC2CCCC2)c2cccnc2)cc1 (configuration not stated) 39.8 µM [inhibitor, partial curve, poor fit], Cc1ccc(NC(=O)c2sc3nc(-c4cc5ccccc5oc4=O)[nH]c(=O)c3c2C)c(C)c1 44.7 µM [inhibitor, single point]

Potency, inactive:
O=C(Nc1c(C(=O)N2CCOCC2)oc2ccccc12)c1cccc([N+](=O)[O-])c1, CCOC(=O)C(NC(=O)Nc1ccc(F)cc1F)(Oc1ccccc1)C(F)(F)F (configuration not stated), COC(=O)c1cc(S(=O)(=O)NCc2cccs2)c[nH]1, O=C1Nc2ccc(S(=O)(=O)NCCCO)c3cccc1c23, CC1CCc2c(sc3ncnc(SC(C)C(=O)NCC4CCCO4)c23)C1 (configuration not stated), Cc1cc(NS(=O)(=O)c2ccc(NC(=O)c3cc(-c4ccccc4Cl)nc4ccccc34)cc2)no1, CCc1cc2c(SCC#N)ncnc2s1, O=C1NC(=S)N/C1=C\C=C\c1ccccc1, CC(C)CCNC(=O)c1cccc(Nc2nc3ccccc3n3nnnc23)c1, Cc1ccc(Cn2c(=O)c3cccnc3n(CC(=O)Nc3cccc(C(F)(F)F)c3)c2=O)cc1, O=S(=O)(c1ccc(NC(=S)N2CCN(c3ccc(O)cc3)CC2)cc1)N1CCOCC1, Cc1ccc2oc(-c3ccccc3C(=O)O)cc(=O)c2c1, CCc1cccc(NC(=O)Nc2ccc3c(c2)N(C)C(=O)c2ccccc2S3)c1, O=C(CC1Sc2ccc(C(F)(F)F)cc2NC1=O)Nc1ccc(Cl)c(C(F)(F)F)c1 (configuration not stated), O=C(c1ccc(-c2cccc(C(F)(F)F)c2)o1)N1CCN(c2ccccc2)CC1, COc1ccccc1-c1noc(-c2ccc(N3CCC(C)CC3)c([N+](=O)[O-])c2)n1
